B1: il2ra_site2_3nfp_normal_mot_HHH_b1_00660_af2_000000199_0001_40_57_H_._HHH_b1_02631_af2_0001_0000700034_0000001_0 (protein)
chain: SSSSDEEERVRELLEEIEELIKEGNPEEARELLREASNLAYELNNPELFAAVEELLYLLASSSSS
B2: il2ra_site1_2b5i_normal_mot_HHH_b1_06258_af2_000000112_0001_42_56_H_._HHH_b1_08392_0001_0000700060_0000001_1_af2pred_dldesign_0_af2pred (protein)
chain: SSSSSPEEEEAEDLFLEAVRLSRTDKEKAKELLEKALELAKKLGNEKLVAEIEYFLKRLESSSSS
B3: il2ra_site2_2erj_sap_19_mot_HHH_b1_00922_000000236_0001_39_57_H_._HHH_b2_03501_0001_0001400025_0000001_0_0001 (protein)
chain: SSSSDELHRAYELANEIMHALARGDEELFEELTEELQELIERLGSPSAEEILRALERHFNSSSSS
B4: il2ra_site1_3nfp_normal_mot_b9b1aa0f98829a21a591038753170461_0001_1_af2_000000119_0001_3_14_H_._HHH_b2_04628_af2_0001_0000200034_0000001_0_af2pred_0001_af2pred (protein)
chain: SSSSTEALEEARELTEEIRRLLKEGNKEEAEKLLRRLEELAEELNDPVLELLVRALQRLLNSSSS
B5: il2ra_site1_3nfp_sap_12_mot_HHH_b1_07180_af2_000000260_0001_1_19_H_._HHH_b2_06317_af2_0001_0000500010_0000001_0_0001_af2pred_0001_af2pred_1 (protein)
chain: SDEELIKKLVRIAVEQNSPRLLRKILRDFERYTGDPEEAERILEELIEEVLGDPEEARRLVEEAK
B6: il2ra_site1_2b5i_sap_12_mot_HHH_b2_04997_af2_000000138_0001_1_34_H_._HHH_b1_01670_0001_0000100005_0000001_0_0001_af2pred_0001_af2pred_1 (protein)
chain: SSSDIFERVLELYKEASKLLRNGNPEEAEEVVEEALRLAEEGNDENARKDLQNLLELIRRTSSSS
B7: il2ra_site1_3nfp_normal_mot_HHH_b2_03135_af2_000000097_0001_42_55_H_._ems_3hM_2462_af2_0001_0000100003_0000001_0_af2pred_0001_af2pred (protein)
chain: SSQEASELVEEVSKLLKEASRKDDKEIAEEAIELAEQLAKEVDDPVARELLERLIKAAEKIVEQS
B8: il2ra_site1_1z92_sap_9_mot_HHH_b1_03747_000000078_0001_21_38_H_._HHH_b2_03280_0001_0000500010_0000001_0_0001_af2pred_0001_af2pred_swapped (protein)
chain: SSSSSYERFKELAEKNIREAIEDGDEESARKDLEQLERYARRAKNPEVQKVVEELEELIDSSSSS
B9: il2ra_site2_3nfp_normal_mot_HHH_b2_07362_000000201_0001_1_15_H_._HHH_b2_05183_0002_0000700051_0000001_0 (protein)
chain: SSSSDREEVEELLEEAEELLKEGDPSEAFQVVMEASELAAKLDDPELAKAVFELYKLLLNSSSSS
B10: il2ra_site2_2erj_normal_mot_HHH_b1_07741_000000192_0001_1_20_H_._9b1ece5d1ebc94355a99c96473898622_0001_1_af2_0001_0000300001_0000001_0 (protein)
chain: DQEEFLRRAARENPETFIRYAELLAKDAGNPELLKLVEELKEEVEKGEIPPEEAAELVVEVLEEL
B11: il2ra_site2_3nfp_normal_mot_ems_p1-14H-GBL-14H-GABBL-15H_0148_0001_0001_0002_000000194_0001_18_31_H_._49469fcb01e68df237a8336044d9c6d5_0001_1_af2_0001_000020001 … (protein)
chain: PEAEAILFANEAGDPELYAALALLLQRLDKDPNDEEARELLEELIQLVRRGDPEELKELAKRIAK
B12: il2ra_site1_3nfp_normal_mot_HHH_b1_07180_af2_000000260_0001_1_19_H_._HHH_b2_04392_0001_0000100003_0000001_0_af2pred_0001_af2pred_swapped (protein)
chain: SSSSSEEAEEILEEARELIERLIEEGDFRRASEVAKEAQKLLRELGDHEALEELLRFAHEASSSS
B13: il2ra_site1_1z92_sap_13_mot_HHH_b1_07660_af2_000000114_0001_40_57_H_._HHH_b1_01257_0001_0000100006_0000001_0_0001 (protein)
chain: SSSSDRREKAFEWSEKLVEAALRLGNEELAEFAIRQLELLAEHTNDPELREIVKELKERLSSSSS
B14: il2ra_site2_3nfp_sap_16_mot_HHH_b2_04655_af2_000000128_0001_19_35_H_._HHH_b2_05884_0001_0000200009_0000001_0_0001 (protein)
chain: SSSSDKSEEYVRAALELAKRAEEEGDPEAAQRSLEIALLAAESAGNPELFREIEELLEELRSSSS
B15: il2ra_site2_3nfp_normal_mot_HHH_b1_03316_000000041_0001_39_56_H_._5f20bd37ef72b54d9d5808571b4331c8_0001_0001_0000400034_0000001_0_af2pred_0001_af2pred (protein)
chain: GPSQLIRELQKEDEELARLLFTLRLLVEELNDPRLKELLEEALELIEEGNPEEAEEVLREALRLP
B16: il2ra_site1_1z92_sap_19_mot_7891c0d1f2c7eedbb314a075540956e2_0001_1_af2_000000230_0001_54_65_H_._HHH_b1_04373_af2_0001_0000400030_0000001_1_0001 (protein)
chain: SSMEFAVEQLVRKFERSPEARESATRILSRLLGIPPEEVEELLKELVELYRKDPEKAAELLKKLA
B17: il2ra_site1_3nfp_normal_mot_HHH_b1_05396_000000293_0001_1_19_H_._HHH_b1_06882_0001_0000700048_0000001_1 (protein)
chain: SSSSDDEELNRLLEEILRLAFEGDEEEAQRLIEELEKLAEELNDEAIRKFLEDILRALELLSSSS
B18: il2ra_site2_3nfp_normal_mot_HHH_b1_00660_af2_000000090_0001_40_57_H_._HHH_b2_05870_0001_0000500009_0000001_0_af2pred_0001_af2pred (protein)
chain: SSSSSSDEVEELIRQAEELLEKGNPEEAKELLEKAALIAAELGDFELFARIAELLLKVDSSSSSS
B19: il2ra_site2_2erj_sap_22_mot_077498ac8ee2fbf61350c97112a77e25_0001_1_000000076_0001_36_49_H_._HHH_b1_00573_af2_0001_0000600015_0000001_0_0001 (protein)
chain: SSSSSDVEEELEKLIEEAEELKKENPEEAASVLIEAALLALENNDEEIFKKVSELFEELFSSSSS

19 molecules from article PMC10163288 can be followed below.

Some of the results follow.

The target in the assay is il2ra, P01589. Description: yeast display titration.
Take B1: the “apparent Kd” value was “inactive: no binding seen”.
As for B2, the “apparent Kd” value is “inactive: no binding seen”.
The value for B3 was “inactive: no binding seen”.
In the case of B4, the “apparent Kd” value was “inactive: no binding seen”.
B5: the “apparent Kd” value was “inactive: no binding seen”.
The value for B6 was “inactive: no binding seen”; that for B7 was “inactive: no binding seen”; that for B8 was “inactive: no binding seen”.
As for B9, the entry is “inactive: no binding seen”; as for B10, “inactive: no binding seen”; as for B11, “inactive: no binding seen”.
The value for B12 was “inactive: no binding seen”; that for B13 was “inactive: no binding seen”.
Take B14: the “apparent Kd” value is “inactive: no binding seen”.
Turning to B15, the “apparent Kd” value is “inactive: no binding seen”.
The value for B16 was “inactive: no binding seen”.
As for B17, the entry is “inactive: no binding seen”.
On to B18, for which the “apparent Kd” value was “inactive: no binding seen”.
As for B19, the entry is “inactive: no binding seen”.
